Data set [1] is described as follows: Evaluation by trained and/or certified flavor or fragrance chemists or master perfumers; categorization by commercial prospect. To be noted: for Rating: category of commercial prospect, (A) highest > (B) > (C) > (D) lowest, (E) requires further study; for Rating (category of commercial prospect): evaluation by trained flavor or fragrance chemists or master perfumers.

A further data set concerns odor evaluation panel. Kind of data set: Odor evaluation panel rating of odorants by Rate-All-That-Apply (RATA) method with 55-word odor lexicon, plus intensity and pleasantness. Details: species or system human. The following applies: for Floral: mean panelist score for odor label floral (RATA); for Fruity: mean panelist score for odor label fruity (RATA); for Spicy: mean panelist score for odor label spicy (RATA); for Sweet: mean panelist score for odor label sweet (RATA); for Pleasantness: mean panelist score for odor pleasantness.

Turning to `CCCC(O)C(CC)CO` (centres unmarked) [Compound 191, 2-ethylhexane-1,3-diol], in data set [1], the Rating entry is given as “(C)”. Moreover, in the data set on odor evaluation panel, the Floral amounted to 0.167, the Fruity is listed as 0.167, the Spicy was 0.133 and the Sweet was 0.733. The Pleasantness with odor evaluation panel amounted to 4.43.
Consider `Cc1ccccc1CO` [Compound 724, (2-methylphenyl)methanol], for which the “Rating (category of commercial prospect)” value in data set [1] was “(C)”. In the data set on odor evaluation panel, the Floral was determined as 0.714, the Fruity is reported as 0.629, the Spicy was found to be 0 and the Sweet is listed as 1.429. For the same compound, the Pleasantness with odor evaluation panel is 4.546.
In the case of `O=C1CCCCC1C1=CCCCC1` (centres unmarked) [Compound 327, 2-(cyclohexen-1-yl)cyclohexan-1-one], the Rating result in data set [1] was “(A)”. Besides, in the data set on odor evaluation panel, the Floral is 0.344, the Fruity worked out at 0.781, the Spicy is given as 0.344 and the Sweet is 1.062. For the same compound, the Pleasantness in the data set on odor evaluation panel came to 5.519.
Regarding `CC(C)C1CCC(C(=O)O)CC1` (centres unmarked) [Compound 630, 4-propan-2-ylcyclohexane-1-carboxylic acid], the “Rating (category of commercial prospect)” value in data set [1] is reported as “(D)”. Moreover, in the data set with odor evaluation panel, the Floral is given as 0, the Fruity was 0, the Spicy is on record as 0.647 and the Sweet is reported as 0.235. Moreover, the Pleasantness with odor evaluation panel is listed as 3.144.
Regarding `N#CC/C=C/CC#N` [Compound 137, (E)-hex-3-enedinitrile], in data set [1], the Rating entry is recorded as “(D)”. In the data set on odor evaluation panel, the Floral came to 0.083, the Fruity is given as 0.083, the Spicy came out at 0 and the Sweet amounted to 0.111.
Take `CCOC(CC(OCC)OCC)OCC` [Compound 703, 1,1,3,3-tetraethoxypropane]: the “Rating (category of commercial prospect)” value in data set [1] is reported as “(C)”. In the data set with odor evaluation panel, the Floral is listed as 0.25, the Fruity came to 0.194, the Spicy amounted to 0.083 and the Sweet was 0.611.
`OCC1CCC=CO1` (centres unmarked) [Compound 417, 3,4-dihydro-2H-pyran-2-ylmethanol]: the Rating entry in data set [1] is “(B)”. Moreover, in the data set on odor evaluation panel, the Floral came out at 0.167, the Fruity amounted to 0.667, the Spicy worked out at 0.083 and the Sweet stood at 0.417.
`CCCC(=O)c1ccc2c(c1)OCO2` [Compound 227, 1-(1,3-benzodioxol-5-yl)butan-1-one]: the Rating result in data set [1] is given as “(B)”. In the data set on odor evaluation panel, the Floral was found to be 0.156, the Fruity is reported as 1.406, the Spicy turned out to be 0.094 and the Sweet worked out at 0.906. The Pleasantness with odor evaluation panel is 6.281.
For the compound `c1scc2c1OCCO2` [Compound 131, 2,3-dihydrothieno[3,4-b][1,4]dioxine], the Rating result in data set [1] was “(D)”. In the data set on odor evaluation panel, the Floral was 0.457, the Fruity turned out to be 0, the Spicy came to 0.4 and the Sweet is 0.143. For the same compound, in the data set with odor evaluation panel, the Pleasantness came out at 3.394.
As for `CCCCCCn1ccnc1` [Compound 222, 1-hexylimidazole], the Rating entry in data set [1] is listed as “(D)”. Further, in the data set on odor evaluation panel, the Floral was 0.139, the Fruity turned out to be 0.028, the Spicy is reported as 0 and the Sweet is on record as 0.139.
As for `CCOC(C)(OCC)OCC` [Compound 541, 1,1,1-triethoxyethane], the Rating entry in data set [1] is “(D)”. In addition, in the data set on odor evaluation panel, the Floral is given as 0.111, the Fruity is 0.139, the Spicy is reported as 0 and the Sweet was found to be 0.556.
Consider `CC(=NO)c1ccccc1` [Compound 241, N-(1-phenylethylidene)hydroxylamine], for which, in data set [1], the Rating result is on record as “(D)”. For the same compound, in the data set with odor evaluation panel, the Floral is 0.969, the Fruity is 0.188, the Spicy was 0.094 and the Sweet is given as 0.781. Moreover, the Pleasantness in the data set on odor evaluation panel amounted to 5.066.
With isobornyl methacrylate [Compound 615], in data set [1], the “Rating (category of commercial prospect)” value is given as “(D)”. For the same compound, in the data set with odor evaluation panel, the Fruity was determined as 0, the Spicy was 0.371, the Sweet was 0.286 and the Pleasantness stood at 6.111.
Turning to `COC(C)CCOC(=O)CCS` (centres unmarked) [Compound 520, 3-methoxybutyl 3-sulfanylpropanoate], the Rating result in data set [1] was “(D)”. In the data set on odor evaluation panel, the Floral came out at 0, the Fruity is recorded as 0, the Spicy worked out at 0.094 and the Sweet stood at 0. Also, in the data set on odor evaluation panel, the Pleasantness worked out at 1.084.
With `Cc1cc(C)cc(C#N)c1` [Compound 974, 3,5-dimethylbenzonitrile], in data set [1], the “Rating (category of commercial prospect)” value was “(B)”. Also, in the data set on odor evaluation panel, the Floral worked out at 0.355, the Fruity is recorded as 0.484, the Spicy amounted to 1.968 and the Sweet was determined as 2.032. Also, in the data set with odor evaluation panel, the Pleasantness is 6.661.
`CC(=O)C1CC2C=CC1C2` (centres unmarked) [Compound 391, 1-(2-bicyclo[2.2.1]hept-5-enyl)ethanone]: the Rating entry in data set [1] is recorded as “(A)”. In the data set with odor evaluation panel, the Floral is 0.452, the Fruity was 0.516, the Spicy amounted to 0.161 and the Sweet is 1.516. The Pleasantness in the data set with odor evaluation panel is 4.923.
Regarding `CCC1CCCCC1O` (centres unmarked) [Compound 728, 2-ethylcyclohexan-1-ol], the “Rating (category of commercial prospect)” value in data set [1] was “(A)”. Further, in the data set on odor evaluation panel, the Floral is 0.257, the Fruity is on record as 0, the Spicy is given as 0.057 and the Sweet is 0.314. Besides, in the data set with odor evaluation panel, the Pleasantness is on record as 4.517.
As to `CC(C)C(C)(C#N)C(C)C` [Compound 745, 2,3-dimethyl-2-propan-2-ylbutanenitrile], the “Rating (category of commercial prospect)” value in data set [1] is reported as “(C)”. Moreover, in the data set on odor evaluation panel, the Floral was found to be 0, the Fruity came out at 0, the Spicy is listed as 0.114 and the Sweet came to 0.371. In addition, the Pleasantness in the data set on odor evaluation panel came out at 6.283.
Regarding `Cc1ccccc1N1CCNCC1` [Compound 955, 1-(2-methylphenyl)piperazine], the “Rating (category of commercial prospect)” value in data set [1] is given as “(D)”. In the data set with odor evaluation panel, the Floral was determined as 0, the Fruity was found to be 0, the Spicy was 0 and the Sweet worked out at 0. Moreover, the Pleasantness in the data set with odor evaluation panel is reported as 2.672.
Take `CC1CCCC(C)C1` (centres unmarked) [Compound 590, 1,3-dimethylcyclohexane]: in data set [1], the “Rating (category of commercial prospect)” value was “(D)”. For the same compound, in the data set with odor evaluation panel, the Floral was 0.394, the Fruity amounted to 0.818, the Spicy was 0 and the Sweet is 1. Further, in the data set on odor evaluation panel, the Pleasantness amounted to 6.109.
Regarding `CC[C@H](C)[C@H](N)CO.Cl` [Compound 416, L-isoleucinol HCl], in data set [1], the Rating result is recorded as “(D)”. For the same compound, in the data set with odor evaluation panel, the Floral was determined as 0.111, the Fruity was 0, the Spicy is listed as 0 and the Sweet amounted to 0.611.
As for `Nc1ccc2c(c1)OCCO2` [Compound 313, 2,3-dihydro-1,4-benzodioxin-6-amine], the Rating entry in data set [1] is on record as “(D)”. In the data set with odor evaluation panel, the Floral came out at 0.406, the Fruity was found to be 0.25, the Spicy is listed as 0.375 and the Sweet worked out at 0.844. Moreover, in the data set on odor evaluation panel, the Pleasantness amounted to 5.091.

For the origin of these results see patent US20250075147A1, “FRAGRANCE AND FLAVOR COMPOSITIONS COMPRISING NEW FLAVOR AND FRAGRANCE INGREDIENTS” (priority 2023, published 2025).
